In the supplement of paper PMC10735217 one finds TEAD-luciferase reporter activity data, which are given here for 26 compounds.

The list shows a part of the results. This data set is noisy: repeats of one test often differ as much as different tests do.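 Human kidney-derived cells stably carry a construct in which eight TEAD-binding elements drive luciferase, measured by luminescence in a drug-repurposing library screen. A hit is any compound whose signal exceeds the plate mean by more than five robust Z scores.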

The assay concerns HEK293A TEAD-LUC reporter. The assay is described as follows: TEAD-luciferase reporter activity (YAP activation), robust Z score vs plate; higher = stronger YAP/TEAD activation. The settings on record: 24 h. For orientation: A reporter such as luciferase makes a cellular process visible.

On to `OC(CCN1CCCCC1)(c1ccccc1)C1CC2C=CC1C2` (stereo not drawn) [Biperiden], for which the TEAD-luciferase reporter activity by setting is: (compound concentration: 200 nM) inactive: 2.2; (compound concentration: 2 uM) inactive: -0.87; (compound concentration: 10 uM) inactive: -1.81.

As for `CC[C@H](C)[C@H](NC(=O)[C@@H](NC(=O)[C@H](CCC(=O)O)NC(=O)[C@H](CCSC)NC(=O)[C@H](CC(C)C)NC(=O)[C@H](CCCCN)NC(=O)[C@H](CCCNC(=N)N)NC(=O)[C@H](CC(N)=O)NC(=O)[C@H](CO)NC(=O)[C@H](Cc1c[nH]cn1)NC(=O)[C@H](C)NC(=O)[C@H](CCC(N)=O)NC(=O)[C@H](CCC(N)=O)NC(=O)[C@H](C)NC(=O)[C@H](CC(C)C)NC(=O)[C@H](CCC(N)=O)NC(=O)[C@H](CCC(=O)O)NC(=O)[C@H](C)NC(=O)[C@H](CCCNC(=N)N)NC(=O)[C@H](C)NC(=O)[C@H](CCSC)NC(=O)[C@H](CCC(=O)O)NC(=O)[C@H](CC(C)C)NC(=O)[C@@H](NC(=O)[C@H](CCC(=O)O)NC(=O)[C@H](CCCNC(=N)N)NC(=O)[C@H](CC(C)C)NC(=O)[C@H](CC(C)C)NC(=O)[C@H](Cc1c[nH]cn1)NC(=O)[C@H](Cc1ccccc1)NC(=O)[C@@H](NC(=O)[C@H](CC(C)C)NC(=O)[C@H](CC(=O)O)NC(=O)[C@H](CC(C)C)NC(=O)[C@H](CO)NC(=O)[C@@H](NC(=O)[C@@H]1CCCN1C(=O)[C@@H]1CCCN1C(=O)[C@H](CCC(=O)O)NC(=O)[C@H](CCC(=O)O)NC(=O)[C@@H](N)CO)[C@@H](C)CC)[C@@H](C)O)C(C)C)[C@@H](C)CC)C(N)=O` [Corticotropin-releasing factor (human)], the TEAD-luciferase reporter activity is, setting by setting: (compound concentration: 200 nM) inactive: -2.16; (compound concentration: 2 uM) inactive: -1.44; (compound concentration: 10 uM) inactive: 1.56.

Consider `Fc1ccc2c(N3CCN(CC4Cc5ccccc54)CC3)noc2c1` (stereo not drawn), for which the TEAD-luciferase reporter activity reads like this: (compound concentration: 200 nM) inactive: -0.717; (compound concentration: 2 uM) inactive: -0.531; (compound concentration: 10 uM) inactive: 0.745.

As to `COC(=O)Nc1cc(N2CC=CCC2)nc2nc(=O)on12` [Carprazadil], the TEAD-luciferase reporter activity (compound concentration: 200 nM) is inactive: -0.927, the TEAD-luciferase reporter activity (compound concentration: 2 uM) was inactive: -0.924 and the TEAD-luciferase reporter activity (compound concentration: 10 uM) is inactive: 0.527.

Turning to `CC(=O)OC[C@H]1O[C@@H](n2ccc(=O)[nH]c2=O)[C@H](OC(C)=O)[C@@H]1OC(C)=O` [uridine triacetate], the TEAD-luciferase reporter activity is inactive: -2.72 (compound concentration: 200 nM), inactive: -0.148 (compound concentration: 2 uM) and inactive: -1.6 (compound concentration: 10 uM).

Take `COC(=O)[C@H](C/C=C/c1ccc(N(C)c2ncccn2)cc1)NC(=O)Cc1ccccc1`: the TEAD-luciferase reporter activity is inactive: 2.21 (compound concentration: 200 nM), inactive: -0.0174 (compound concentration: 2 uM) and inactive: 0.114 (compound concentration: 10 uM).

Consider `CC[C@H](Oc1ccccc1)C(=O)N[C@@H]1C(=O)N2[C@@H]1SC(C)(C)[C@@H]2C(=O)O`, for which the TEAD-luciferase reporter activity was inactive: -0.399 (compound concentration: 200 nM), inactive: -0.911 (compound concentration: 2 uM) and inactive: 0.126 (compound concentration: 10 uM).

Turning to `O=C(O)c1ccccc1NC(=O)N1CCC(c2ccccc2C(F)(F)F)CC1`, the TEAD-luciferase reporter activity is, setting by setting: (compound concentration: 200 nM) inactive: -1.11; (compound concentration: 2 uM) inactive: -2.05; (compound concentration: 10 uM) inactive: 0.186.

For `CC1C(=O)OC2C(O)C34C5CC(C(C)(C)C)C36C(OC(=O)C6O)OC4(C(=O)O5)C12O` (stereo not drawn) [Ginkgolide B], the TEAD-luciferase reporter activity runs as follows: (compound concentration: 200 nM) inactive: 0.727; (compound concentration: 2 uM) inactive: -1.83; (compound concentration: 10 uM) inactive: -2.03.

For `CCOc1ncc(S(=O)(=O)N2CCN(CC)CC2)cc1-c1nc2c(CC)n(CCOC)nc2c(=O)[nH]1` [gisadenafil], the TEAD-luciferase reporter activity is inactive: -0.987 (compound concentration: 200 nM), inactive: -1.63 (compound concentration: 2 uM) and inactive: -0.576 (compound concentration: 10 uM).

`Cn1nccc1-c1ccc(Sc2cccc(C3(C(N)=O)CCOCC3)c2)cc1`: the TEAD-luciferase reporter activity is, setting by setting: (compound concentration: 200 nM) inactive: -1.49; (compound concentration: 2 uM) inactive: -1.57; (compound concentration: 10 uM) inactive: -1.37.

With `CC(=O)Nc1ccc(C(=O)N2CCN(c3cccc(C=O)c3)C(=O)C2)cc1`, the TEAD-luciferase reporter activity by setting is: (compound concentration: 200 nM) inactive: 0.368; (compound concentration: 10 uM) inactive: 1.55.

Regarding `Cc1ccc2c(NC[C@](O)(CC(C)(C)c3cc(F)cc4c3OCC4)C(F)(F)F)cccc2n1` [Mapracorat], the TEAD-luciferase reporter activity is, setting by setting: (compound concentration: 200 nM) inactive: 0.0606; (compound concentration: 10 uM) inactive: -0.422.

In the case of `CCC(CO)NCCNC(CC)CO` (stereo not drawn) [Ethambutol], the TEAD-luciferase reporter activity is inactive: 2.02 (compound concentration: 200 nM), inactive: -1.01 (compound concentration: 2 uM) and inactive: -1.63 (compound concentration: 10 uM).

Consider `CC1(C)OCC(COC(=O)C(Cc2ccccc2)N[C@@H](Cc2ccccc2)C(=O)NCCC(=O)O)O1` (stereo partly drawn), for which the TEAD-luciferase reporter activity by setting is: (compound concentration: 200 nM) inactive: -1.22; (compound concentration: 2 uM) inactive: 0.944; (compound concentration: 10 uM) inactive: -0.687.

With `CC(C)(C)c1cc(SC(Sc2cc(C(C)(C)C)c(O)c(C(C)(C)C)c2)Sc2cc(C(C)(C)C)c(O)c(C(C)(C)C)c2)cc(C(C)(C)C)c1O`, the TEAD-luciferase reporter activity is, setting by setting: (compound concentration: 200 nM) inactive: -0.724; (compound concentration: 2 uM) inactive: -1.37; (compound concentration: 10 uM) inactive: 0.31.

Consider `COc1ccc2nc3c(c(N)c2c1)CCCC3` [7-Methoxytacrine], for which the TEAD-luciferase reporter activity reads like this: (compound concentration: 200 nM) inactive: -1.26; (compound concentration: 2 uM) inactive: -0.844; (compound concentration: 10 uM) inactive: -0.847.

`CC(C)N1CCN(C(=O)c2ccc(OC(=O)C3CCCc4ccccc43)cc2)CC1` (stereo not drawn): the TEAD-luciferase reporter activity (compound concentration: 200 nM) was inactive: -0.43, the TEAD-luciferase reporter activity (compound concentration: 2 uM) is inactive: -0.648 and the TEAD-luciferase reporter activity (compound concentration: 10 uM) is inactive: 0.955.

`COC(=O)C1C(O)CCC2CN3CCc4c([nH]c5ccccc45)C3CC21` (stereo not drawn) [Yohimbine]: the TEAD-luciferase reporter activity by setting is: (compound concentration: 200 nM) inactive: -0.27; (compound concentration: 2 uM) inactive: 0.13; (compound concentration: 10 uM) inactive: 0.295.

Take `COCC1=C(C(=O)OC)[C@H](c2ccc(F)c(F)c2)N(C(=O)NCCCN2CCC(c3cccc(NC(C)=O)c3)CC2)C(=O)N1`: the TEAD-luciferase reporter activity was inactive: 0.625 (compound concentration: 200 nM), inactive: -1.21 (compound concentration: 2 uM) and inactive: 0.381 (compound concentration: 10 uM).

Take `Fc1ccc(C(OCCNCCc2ccccc2)c2ccc(F)cc2)cc1`: the TEAD-luciferase reporter activity reads like this: (compound concentration: 200 nM) inactive: 0.258; (compound concentration: 2 uM) inactive: 0.777; (compound concentration: 10 uM) inactive: 0.867.

As to `O=C(OCCN1CCOCC1)c1cccnc1Nc1cccc(C(F)(F)F)c1` [morniflumate], the TEAD-luciferase reporter activity is, setting by setting: (compound concentration: 200 nM) inactive: -1.05; (compound concentration: 2 uM) inactive: 0.581; (compound concentration: 10 uM) inactive: -1.49.

Consider `OCCN1CCN(CCCN2c3ccccc3Sc3ccc(Cl)cc32)CC1` [Perphenazine], for which the TEAD-luciferase reporter activity (compound concentration: 2 uM) is inactive: -0.671.

Take `OCCN1CCN(CCCN2c3ccccc3Sc3ccc(Cl)cc32)CC1`: the TEAD-luciferase reporter activity is, setting by setting: (compound concentration: 200 nM) inactive: -1.29; (compound concentration: 10 uM) inactive: 3.25.

In the case of `CCCCC[C@@H](O)[C@H]1C(=O)O[C@H](C)[C@@H](O)/C=C/C=C/C=C/C=C/C=C(C)[C@@H](O)C[C@H](O)C[C@H](O)C[C@H](O)C[C@H](O)C[C@H](O)C[C@@H]1O` [filipine], the TEAD-luciferase reporter activity is, setting by setting: (compound concentration: 200 nM) inactive: -0.847; (compound concentration: 2 uM) inactive: -0.23; (compound concentration: 10 uM) inactive: 0.732.

In the case of `COc1cnc(NS(=O)(=O)c2ccc(N)cc2)nc1`, the TEAD-luciferase reporter activity was inactive: -0.959 (compound concentration: 200 nM), inactive: -1.29 (compound concentration: 2 uM) and inactive: -0.897 (compound concentration: 10 uM).
